At least one structure is not confirmed: it was looked up by name or label, or the drawing left a doubt.
Columns and labels:
fibronectin (FN) = test: FN mRNA (RT-PCR) and protein (western blot) expression in primary skin fibroblasts; format: cell-based, human
Experimental: Skin-punch biopsies (6 mm) were obtained with informed consent from the clinically affected and unaffected skin of 6 patients with SSc and 5 healthy twins. All SSc patients had diffuse skin involvement and met the American College of Rheumatology criteria for the diagnosis of SSc (1). Biopsies were performed on the leading edge of dermal thickening and clinically normal skin. […] To determine the role of ERα and β on FN individually, cells we cultured with propyl-pyrazole-triol (PPT), an ERα specific ligand (100 nM; Tocris), and genistein, an ERβ specific ligand (100 nM; […] Extracellular matrix (ECM) was extracted as we have previously described. (35) Briefly, cells were rinsed with PBS and incubated with 8M Urea in PBS for 20 mins. Cells were aspirated and the ECM was rinsed three times with PBS. ECM was scraped in 100 μl sample buffer (20 mM dithiothreitol, 6% SDS, 0.25 M Tris, pH 6.8, 10% glycerol, 10 mM NaF and bromophenyl blue) and analyzed by western blot. Skin fibroblasts in early passage (passages 3-4) were harvested and RNA was extracted using TRIzol (Invitrogen). mRNA was reverse transcribed using Superscript II (Invitrogen) following the manufacturer's recommendations. […] Immunoreactive proteins were detected by chemiluminescence (PerkinElmer Life Sciences, Boston, Mass.), followed by autoradiography.

ERα = ERα protein in cellular lysates of skin fibroblasts (western blot); format: cell-based, human; conditions: skin fibroblasts pre-treated with inhibitor 1 hr prior to E2; 48 hrs
fibronectin = test: ex vivo human skin organ culture: fibronectin immunohistochemistry; conditions: explanted human skin, 7 days; anti-fibronectin antibody, AEC
Experimental: 6 μm sections of paraffin-embedded skin tissues were de-paraffinized, endogenous peroxidase was quenched using 10% H2O2, and endogenous biotin was blocked using the biotin blocking kit (Dakocytomation, Carpinteria, Calif.). Sections were blocked with 5% serum and incubated with anti-fibronectin antibody followed by secondary antibody. Bound secondary antibody was detected using the AEC Red kit. A light hematoxylin counterstain was used to identify nuclei. Images were taken on a Nikon Eclipse 800 microscope.
To further examine the effect of estradiol in skin tissues, dermal and collagen bundle thickness in dermis were assessed using an ex vivo organ culture system. Ex-planted skin tissues on 35-mm well plates were treated with estradiol, estrogen receptor alpha or beta agonists (PPT, genistein, respectively) or vehicles (ethanol for estraditol, PPT, DMSO for genistein, respectively) for 7 days, and skin sections were stained with hematoxylin and eosin. […] We also assessed the extent of deposition of fibronectin using immunohistochemistry. […] Thus, estradiol is an important factor for the induction of skin fibrosis, and the effect of estradiol is mediated by estrogen receptor alpha.

Structure (SMILES) | E2-mediated increase of FN protein (fibronectin (FN); skin fibroblasts pre-treated with inhibitor 1 hr prior to E2, western blot 48 hrs post-treatment, cellular lysates) | E2-induced increase of ERα (ERα) | FN protein levels in the ECM (fibronectin (FN); primary fibroblasts treated 48 hrs, E2 10 nM, PPT 100 nM, genistein 100 nM, western blot) | fibronectin expression ex vivo (immunohistochemistry) (fibronectin)
O=c1cc(N2CCOCC2)oc2c(-c3ccccc3)cccc12 [PI3K inhibitor, LY294002] | attenuated | blocked | – | –
CCCc1c(-c2ccc(O)cc2)nn(-c2ccc(O)cc2)c1-c1ccc(O)cc1 [PPT, propyl-pyrazole-triol] | – | – | increased | induce fibronectin expression

Source: US9655869B2, “Estrogen antagonists as treatments for sclerosing disorders” (University of Pittsburgh—Of The Commonwealth System Of …, priority 2009, dated 2017)
